{"source": "patent US6670383B2", "about": "“Pyranocoumarin compounds as a novel pharmacophore with anti-TB activity” (priority 2001, dated 2003)", "tested_on": "H37Rv strain of M. tuberculosis", "experiment": "BACTEC 460 radiometric system in BACTEC 12B medium: inhibition and MIC", "type": "cell-based", "conditions": "lowest concentration inhibiting 99% of the inoculum", "note": "Some entries share one result that the patent states for a list of compounds."}
{"smiles": "C[C@H]1[C@H](C)Oc2c3c(c4c(-c5ccccc5)cc(=O)oc4c2[C@H]1O)OC(C)(C)C=C3", "note": "[Soulattrolide (4), Soulattrolide]", "values": [{"measurement": "MIC", "result": "at the same level of (+)-calanolide A"}]}
